Test results from US8841413B2, “Antidiabetic compounds” (Cadila Healthcare Limited, priority 2006, dated 2014).
At least one peptide structure holds a part that was inferred or is arguable (an end, a ring closure or a residue).

Protein sequences, listed by entry. Tags and fused reporters are not part of them. Residues count along the entry.
UniProt P47871, 26-477: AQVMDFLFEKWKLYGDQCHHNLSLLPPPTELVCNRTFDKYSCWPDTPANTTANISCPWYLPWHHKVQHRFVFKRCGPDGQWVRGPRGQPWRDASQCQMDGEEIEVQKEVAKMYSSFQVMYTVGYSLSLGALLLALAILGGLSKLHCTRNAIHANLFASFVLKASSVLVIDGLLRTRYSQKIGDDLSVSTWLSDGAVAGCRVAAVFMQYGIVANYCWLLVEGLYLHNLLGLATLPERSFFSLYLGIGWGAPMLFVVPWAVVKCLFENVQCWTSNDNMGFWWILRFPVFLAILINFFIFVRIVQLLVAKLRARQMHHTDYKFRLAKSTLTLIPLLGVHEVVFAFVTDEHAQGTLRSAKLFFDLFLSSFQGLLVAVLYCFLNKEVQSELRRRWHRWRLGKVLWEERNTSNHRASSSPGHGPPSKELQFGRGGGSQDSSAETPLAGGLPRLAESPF

Tests used:
[1] = system: RIN5F (Rat Insulinoma) cells; assay: In vitro glucose-dependent insulin secretion (RIN5F cell assay); format: cell-based; settings: 16.7 mM glucose load, mean ± S.D., n = 3
Method: After trypsinization, RIN5F cells were seeded at a concentration of 0.2×10^6·cells per well, in 12 well plates.
The supernatant was collected and the insulin amount was measured by ultra sensitive Rat insulin ELISA kit (Crystal Chem, Ill.). The protein was estimated in the supernatant using Bicinchoninic Acid kit, according to the manufacturer's protocol (Sigma Aldrich, Mo.). The total insulin content obtained in Pico-gram (pg) was divided with the total protein (μg) in order to normalize for differences in cell density between wells.

[2] = biological target: T1, human glucagon receptor (Homo sapiens, UniProt P47871); assay: In vitro human glucagon antagonist activity (inhibition of cAMP production), CHO/human glucagon R cells; format: cell-based
T1 construct: The full-length cDNA was cloned in pcDNA3.1(Invitrogen); expressed in transfected cells
Method: CHO cells were grown in Ham's F12 medium containing L-Glutamine (2 mM), HEPES (25 mM), NaHCO3 (1.1 g/L) and supplemented with newborn Calf Serum (NBCS; 10%), Penicillin (50 U/ml (v/v)) and Streptomycin (50 ug/ml (v/v)). Cells were split every 3 days 1:8.
The full-length cDNA was cloned in pcDNA3.1(Invitrogen). […] Clones expressing the receptor were generated by G418 (800 μg/ml active, Sigma) selection. The stable clones were thereafter maintained at 500 ug/ml (G418). The selected clone was used between passages 9-25 for cAMP assays.
The trypsin was inactivated using Ham's F12 medium containing 10% NBCS and the cells were suspended in 2 ml of complete medium. […] The medium was aspirated off from the 12 well plate and the cells were washed once using Ham's F12 (plain). […] After the incubation; the medium was removed and cells were washed once with plain Ham's F12. Subsequently, the cells were lysed by adding 500 ul of ice cold 0.1 N HCl to each well and shaking for 30 minutes at 200 rpm. The cells were then scrapped, the lysate was collected in micro centrifuge tubes and centrifuged at 12000 rpm for 10 min to remove the debris. 300 ul of supernatant from each micro-centrifuge tube was then removed into a glass tube and dried under N2 for 30 min, for cAMP estimation. The total cAMP was estimated from the sample according to the manufacturer's protocol using Cyclic AMP immunoassay kit (R&D systems, Minneapolis: MN). The remaining supernatant is used to determine the protein concentration using micro BCA (Sigma). Data is calculated as percent of control (Vehicle: water) and expressed as Mean+SD.

[3] = 1 nM test compound (fourth concentration column, between 100 nM and 10 μM) with saturated concentration of glucagon peptide
[4] = 1 nM test compound with saturated concentration of glucagon peptide
[5] = 10 nM test compound with saturated concentration of glucagon peptide
[6] = 100 nM test compound with saturated concentration of glucagon peptide
[7] = 10 μM test compound with saturated concentration of glucagon peptide

Row | Structure (SMILES) | Insulin secretion ([1]; 0.1 nM test compd.) [pg/µg/h] | Insulin secretion ([1]; 1 nM test compd.) [pg/µg/h] | Insulin secretion ([1]; 10 nM test compd.) [pg/µg/h] | Human Glucagon receptor antagonistic activity, inhibition of cAMP production of Glucagon peptide [2, 3] [pmol/ml/μg prt] | Human Glucagon receptor antagonistic activity, inhibition of cAMP production of Glucagon peptide [2, 4] [pmol/ml/μg prt] | Human Glucagon receptor antagonistic activity, inhibition of cAMP production of Glucagon peptide [2, 5] [pmol/ml/μg prt] | Human Glucagon receptor antagonistic activity, inhibition of cAMP production of Glucagon peptide [2, 6] [pmol/ml/μg prt] | Human Glucagon receptor antagonistic activity, inhibition of cAMP production of Glucagon peptide [2, 7] [pmol/ml/μg prt]
1 | CCc1cc(OC)ccc1-c1ccc(CC(NC(=O)[C@H](CC(=O)O)NC(=O)[C@H](CO)NC(=O)[C@@H](NC(=O)C(C)(Cc2ccccc2F)NC(=O)[C@@H](NC(=O)CNC(=O)[C@H](CCC(N)=O)NC(=O)C(C)(C)NC(=O)[C@@H](N)Cc2c[nH]cn2)[C@@H](C)O)[C@@H](C)O)C(=O)NC(Cc2ccc(-c3ccccc3C)nc2)C(N)=O)cc1 (single isomer, unassigned) [compound 30] | 15.3 ± 0.19 | 21.2 ± 0.11 | 35.5 ± 0.19 | 3 ± 0.24 | 9 ± 0.14 | 6 ± 0.14 | 5 ± 0.13 | 0
2 | CCc1cc(OC)ccc1-c1ccc(CC(NC(=O)[C@H](CC(=O)O)NC(=O)[C@H](CO)NC(=O)[C@@H](NC(=O)C(C)(Cc2ccccc2F)NC(=O)[C@@H](NC(=O)CNC(=O)[C@H](CCC(N)=O)NC(=O)C(C)(C)NC(=O)[C@@H](N)Cc2c[nH]cn2)[C@@H](C)O)[C@@H](C)O)C(=O)NC(Cc2ccc(-c3ccccc3C)cc2)C(N)=O)cc1 (single isomer, unassigned) [compound 29] | 16.2 ± 0.20 | 22.2 ± 0.20 | 36.1 ± 0.31 | 4 ± 0.15 | 10 ± 0.16 | 8 ± 0.12 | 6 ± 0.14 | 1 ± 0.12
3 | CCc1cc(OC)ccc1-c1ccc(CC(NC(=O)[C@H](CC(=O)O)NC(=O)[C@H](CO)NC(=O)[C@@H](NC(=O)[C@H](Cc2ccccc2)NC(=O)[C@@H](NC(=O)CNC(=O)[C@H](CCC(N)=O)NC(=O)C(C)(C)NC(=O)[C@@H](N)Cc2c[nH]cn2)[C@@H](C)O)[C@@H](C)O)C(=O)NC(Cc2ccc(-c3ccccc3C)cc2)C(N)=O)cc1 (single isomer, unassigned) [compound 13] | 16.1 ± 0.22 | 22.1 ± 0.26 | 36.0 ± 0.36 | 4 ± 0.05 | 10 ± 0.12 | 8 ± 0.02 | 6 ± 0.04 | 1 ± 0.02
4 | CCc1cc(OC)ccc1-c1ccc(CC(NC(=O)[C@H](CC(=O)O)NC(=O)[C@H](CO)NC(=O)[C@@H](NC(=O)[C@H](Cc2ccccc2)NC(=O)[C@@H](NC(=O)CNC(=O)[C@H](CCC(N)=O)NC(=O)C2(NC(=O)[C@@H](N)Cc3c[nH]cn3)CC2)[C@@H](C)O)[C@@H](C)O)C(=O)NC(Cc2ccc(-c3ccccc3C)cc2)C(N)=O)cc1 (single isomer, unassigned) [compound 17] | 16.5 ± 0.12 | 22.7 ± 0.17 | 36.5 ± 0.05 | 0 | 2 ± 0.03 | 0 | 0 | 0
5 | CCc1cc(OC)ccc1-c1ccc(CC(NC(=O)[C@H](CC(=O)O)NC(=O)[C@H](CO)NC(=O)[C@@H](NC(=O)[C@H](Cc2ccccc2)NC(=O)[C@@H](NC(=O)CNC(=O)[C@H](CCC(N)=O)NC(=O)C2(NC(=O)[C@@H](N)Cc3c[nH]cn3)CC2)[C@@H](C)O)[C@@H](C)O)C(=O)NC(Cc2ccc(-c3ccccc3C(F)(F)F)cc2)C(N)=O)cc1 (single isomer, unassigned) [compound 20] | 16.9 ± 0.22 | 22.8 ± 0.31 | 36.7 ± 0.34 | 0 | 5 ± 0.01 | 2 ± 0.17 | 0 | 0
6 | CCc1cc(OC)ccc1-c1ccc(CC(NC(=O)[C@H](CC(=O)O)NC(=O)[C@H](CO)NC(=O)[C@@H](NC(=O)C(C)(Cc2ccccc2F)NC(=O)[C@@H](NC(=O)CNC(=O)[C@H](CCC(N)=O)NC(=O)C(C)(C)NC(=O)[C@@H](N)Cc2c[nH]cn2)[C@@H](C)O)[C@@H](C)O)C(=O)NC(Cc2ccc(-c3ccccc3C(F)(F)F)cc2)C(N)=O)cc1 (single isomer, unassigned) [compound 32] | 16.6 ± 0.41 | 22.9 ± 0.32 | 36.6 ± 0.19 | 0 | 4 ± 0.16 | 2 ± 0.11 | 0 | 0
7 | CCc1cc(OC)ccc1-c1ccc(CC(NC(=O)[C@H](CC(=O)O)NC(=O)[C@H](CO)NC(=O)[C@@H](NC(=O)C(C)(Cc2ccccc2F)NC(=O)[C@@H](NC(=O)CNC(=O)[C@H](CCC(N)=O)NC(=O)C2(NC(=O)[C@@H](N)Cc3c[nH]cn3)CC2)[C@@H](C)O)[C@@H](C)O)C(=O)NC(Cc2ccc(-c3ccccc3C)nc2)C(N)=O)cc1 (single isomer, unassigned) [compound 34] | 16.3 ± 0.15 | 22.4 ± 0.21 | 36.2 ± 0.11 | 0 | 0 | 0 | 0 | 0
8 | CCc1cc(OC)ccc1-c1ccc(CC(NC(=O)[C@H](CC(=O)O)NC(=O)[C@H](CO)NC(=O)[C@@H](NC(=O)[C@H](Cc2ccccc2)NC(=O)[C@@H](NC(=O)CNC(=O)[C@H](CCC(N)=O)NC(=O)C(C)(C)NC(=O)[C@@H](N)Cc2c[nH]cn2)[C@@H](C)O)[C@@H](C)O)C(=O)NC(Cc2ccc(-c3ccccc3C(F)(F)F)cc2)C(N)=O)cc1 (single isomer, unassigned) [compound 16] | 16.6 ± 0.41 | 22.9 ± 0.32 | 36.7 ± 0.11 | 0 | 4 ± 0.02 | 2 ± 0.15 | 0 | 0
